Results: doi:10.1101/2021.10.26.465776

Target: T1, BirA-tagged Aladin (human) (UniProt Q9NRG9)
T1 sequence: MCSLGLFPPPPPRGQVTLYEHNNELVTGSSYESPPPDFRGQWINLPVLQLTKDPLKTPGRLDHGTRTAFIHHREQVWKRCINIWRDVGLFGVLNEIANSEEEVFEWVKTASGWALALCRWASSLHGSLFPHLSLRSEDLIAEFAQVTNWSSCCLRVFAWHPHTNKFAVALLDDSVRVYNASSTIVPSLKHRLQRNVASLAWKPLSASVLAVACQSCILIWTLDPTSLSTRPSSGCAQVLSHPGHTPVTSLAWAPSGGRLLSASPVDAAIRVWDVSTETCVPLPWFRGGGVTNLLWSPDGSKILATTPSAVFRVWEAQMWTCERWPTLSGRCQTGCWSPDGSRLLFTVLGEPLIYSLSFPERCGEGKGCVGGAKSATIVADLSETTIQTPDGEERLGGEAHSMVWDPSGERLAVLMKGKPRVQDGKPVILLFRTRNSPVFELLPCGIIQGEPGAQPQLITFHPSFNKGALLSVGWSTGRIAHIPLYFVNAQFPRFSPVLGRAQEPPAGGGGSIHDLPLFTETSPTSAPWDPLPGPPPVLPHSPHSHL
Test: proximity labelling

B1: NDC1 (protein, UniProt Q9BTX1 1-674)
chain: MATAVSRPCAGRSRDILWRVLGWRIVASIVWSVLFLPICTTVFIIFSRIDLFHPIQWLSDSFSDLYSSYVIFYFLLLSVVIIIISIFNVEFYAVVPSIPCSRLALIGKIIHPQQLMHSFIHAAMGMVMAWCAAVITQGQYSFLVVPCTGTNSFGSPAAQTCLNEYHLFFLLTGAFMGYSYSLLYFVNNMNYLPFPIIQQYKFLRFRRSLLLLVKHSCVESLFLVRNFCILYYFLGYIPKAWISTAMNLHIDEQVHRPLDTVSGLLNLSLLYHVWLCGVFLLTTWYVSWILFKIYATEAHVFPVQPPFAEGSDECLPKVLNSNPPPIIKYLALQDLMLLSQYSPSRRQEVFSLSQPGGHPHNWTAISRECLNLLNGMTQKLILYQEAAATNGRVSSSYPVEPKKLNSPEETAFQTPKSSQMPRPSVPPLVKTSLFSSKLSTPDVVSPFGTPFGSSVMNRMAGIFDVNTCYGSPQSPQLIRRGPRLWTSASDQQMTEFSNPSPSTSISAEGKTMRQPSVIYSWIQNKREQIKNFLSKRVLIMYFFSKHPEASIQAVFSDAQMHIWALEGLSHLVAASFTEDRFGVVQTTLPAILNTLLTLQEAVDKYFKLPHASSKPPRISGSLVDTSYKTLRFAFRASLKTAIYRITTTFGEHLNAVQASAEHQKRLQQFLEFKE
For B1, the binding was “binds”.

B2: Nup35 (protein, UniProt Q8NFH5 1-326)
chain: MAAFAVEPQGPALGSEPMMLGSPTSPKPGVNAQFLPGFLMGDLPAPVTPQPRSISGPSVGVMEMRSPLLAGGSPPQPVVPAHKDKSGAPPVRSIYDDISSPGLGSTPLTSRRQPNISVMQSPLVGVTSTPGTGQSMFSPASIGQPRKTTLSPAQLDPFYTQGDSLTSEDHLDDSWVTVFGFPQASASYILLQFAQYGNILKHVMSNTGNWMHIRYQSKLQARKALSKDGRIFGESIMIGVKPCIDKSVMESSDRCALSSPSLAFTPPIKTLGTPTQPGSTPRISTMRPLATAYKASTSDYQVISDRQTPKKDESLVSKAMEYMFGW
In the case of B2, the binding is reported as “binds”.

These are yes or no findings as the source states them, for the method shown. In cells and extracts the contact can be indirect. These calls come from enrichment with a bait or labelling near it, and not all partners need be listed. Sequences can lack the tags named with a protein.
